We go through 4 substances from PMC4546648.

Sequences of proteins named here, by UniProt entry; tags and fusion partners are left off. A change or cut given only in a name is not applied to a line headed by its entry.
UniProt P16885: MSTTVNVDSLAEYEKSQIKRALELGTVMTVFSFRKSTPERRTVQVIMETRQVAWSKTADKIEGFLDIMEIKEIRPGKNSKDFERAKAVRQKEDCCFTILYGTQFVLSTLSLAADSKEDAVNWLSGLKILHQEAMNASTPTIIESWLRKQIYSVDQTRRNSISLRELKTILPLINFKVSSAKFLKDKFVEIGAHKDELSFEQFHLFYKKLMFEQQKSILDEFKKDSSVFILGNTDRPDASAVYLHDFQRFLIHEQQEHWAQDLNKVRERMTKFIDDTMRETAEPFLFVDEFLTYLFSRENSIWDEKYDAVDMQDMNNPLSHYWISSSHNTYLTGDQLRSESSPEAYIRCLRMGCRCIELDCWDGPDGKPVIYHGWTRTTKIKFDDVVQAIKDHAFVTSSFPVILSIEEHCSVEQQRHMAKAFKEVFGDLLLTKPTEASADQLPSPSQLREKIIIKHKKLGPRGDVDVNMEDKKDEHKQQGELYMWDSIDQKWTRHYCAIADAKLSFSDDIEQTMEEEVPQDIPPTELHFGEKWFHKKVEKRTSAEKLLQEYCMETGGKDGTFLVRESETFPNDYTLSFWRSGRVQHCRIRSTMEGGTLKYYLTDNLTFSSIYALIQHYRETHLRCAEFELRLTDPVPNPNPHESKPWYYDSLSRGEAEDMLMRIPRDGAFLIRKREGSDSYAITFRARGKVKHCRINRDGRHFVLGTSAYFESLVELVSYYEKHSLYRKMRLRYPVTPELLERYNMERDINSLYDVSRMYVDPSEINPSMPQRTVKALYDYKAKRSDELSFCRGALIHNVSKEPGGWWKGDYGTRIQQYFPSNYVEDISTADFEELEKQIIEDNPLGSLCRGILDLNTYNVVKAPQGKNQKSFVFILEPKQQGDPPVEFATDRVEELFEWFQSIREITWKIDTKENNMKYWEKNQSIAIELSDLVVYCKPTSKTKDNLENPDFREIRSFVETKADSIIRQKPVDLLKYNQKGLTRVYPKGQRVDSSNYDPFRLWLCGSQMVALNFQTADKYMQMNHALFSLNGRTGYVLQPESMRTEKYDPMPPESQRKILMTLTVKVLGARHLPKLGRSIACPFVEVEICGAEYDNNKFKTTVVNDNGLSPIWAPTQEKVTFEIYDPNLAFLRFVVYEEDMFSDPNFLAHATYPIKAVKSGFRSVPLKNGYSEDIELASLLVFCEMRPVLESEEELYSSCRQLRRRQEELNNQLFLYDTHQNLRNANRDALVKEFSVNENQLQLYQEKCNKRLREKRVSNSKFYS

Assay [1] has as its target isolated PLCγ2 cSH2 domain wt, S-tagged (UniProt P16885). In words: co-IP; HEK293T co-transfected; lysed in IP buffer (150 mM NaCl, 25 mM tris HCl pH 7.6, 1 mM EDTA, 1% glycerol, 0.2% NP-40); S-tagged construct captured on S protein agarose beads overnight at 4°C; western blot. In general terms: Immunoblotting shows a protein as a band on a membrane.
Assay [2] has as its target GST-K15P cytoplasmic domain (aa 347-489) (Kaposi's sarcoma herpesvirus (KSHV, HHV-8)) (UniProt Q9QR69). Briefly: pull-down; GST-K15P cytoplasmic domain on glutathione beads incubated overnight at 4°C with pre-cleared lysate of HEK293T transfected with PLCγ2 constructs; western blot; only the target purified.
Another assay addresses T1, S-tagged PLCγ1 wt (UniProt P19174).
T1 sequence: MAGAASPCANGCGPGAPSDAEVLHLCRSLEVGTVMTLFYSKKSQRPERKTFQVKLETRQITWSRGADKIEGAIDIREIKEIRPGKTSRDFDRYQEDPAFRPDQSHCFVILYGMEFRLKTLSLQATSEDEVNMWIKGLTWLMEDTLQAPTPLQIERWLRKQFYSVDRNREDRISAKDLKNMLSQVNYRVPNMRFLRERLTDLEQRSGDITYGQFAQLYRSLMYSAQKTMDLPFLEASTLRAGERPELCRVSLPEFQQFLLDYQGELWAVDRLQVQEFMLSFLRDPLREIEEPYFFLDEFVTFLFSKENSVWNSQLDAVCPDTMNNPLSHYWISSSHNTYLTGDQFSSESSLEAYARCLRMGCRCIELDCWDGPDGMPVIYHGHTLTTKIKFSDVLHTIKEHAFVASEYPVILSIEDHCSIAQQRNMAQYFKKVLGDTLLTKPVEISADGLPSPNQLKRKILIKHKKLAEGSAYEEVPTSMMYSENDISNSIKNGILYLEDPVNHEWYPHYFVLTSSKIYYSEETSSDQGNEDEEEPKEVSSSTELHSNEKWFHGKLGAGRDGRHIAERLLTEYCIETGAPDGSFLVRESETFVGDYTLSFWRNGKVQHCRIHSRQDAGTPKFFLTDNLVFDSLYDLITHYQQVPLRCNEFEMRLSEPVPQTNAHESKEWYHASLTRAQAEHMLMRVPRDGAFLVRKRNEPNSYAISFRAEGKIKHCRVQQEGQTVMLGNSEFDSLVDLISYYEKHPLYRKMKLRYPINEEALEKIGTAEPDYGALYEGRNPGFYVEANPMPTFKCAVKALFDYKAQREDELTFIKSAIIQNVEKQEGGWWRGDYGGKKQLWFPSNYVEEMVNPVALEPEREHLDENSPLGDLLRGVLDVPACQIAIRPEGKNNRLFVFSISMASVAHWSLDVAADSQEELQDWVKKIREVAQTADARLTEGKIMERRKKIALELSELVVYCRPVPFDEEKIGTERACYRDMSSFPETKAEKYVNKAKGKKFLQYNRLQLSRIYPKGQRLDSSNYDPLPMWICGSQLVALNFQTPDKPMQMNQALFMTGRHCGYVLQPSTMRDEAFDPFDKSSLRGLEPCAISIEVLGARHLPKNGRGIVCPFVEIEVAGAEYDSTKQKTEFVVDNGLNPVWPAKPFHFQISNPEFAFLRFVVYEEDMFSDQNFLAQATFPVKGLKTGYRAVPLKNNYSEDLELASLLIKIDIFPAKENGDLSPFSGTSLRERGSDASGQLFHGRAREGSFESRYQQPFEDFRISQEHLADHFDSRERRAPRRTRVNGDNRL
In words: co-IP; HEK293T co-transfected; lysed in IP buffer (150 mM NaCl, 25 mM tris HCl pH 7.6, 1 mM EDTA, 1% glycerol, 0.2% NP-40); S-tagged construct captured on S protein agarose beads overnight at 4°C; western blot.

Results are given in words; binding and its absence hold for the method and conditions named. In cells and extracts the contact can be indirect. A result given as binding can be weak or reduced; the word gives no strength. For some of these results: Where a sequence is shown, tags or fusion partners need not be part of it.

For K15P Y481F (from UniProt Q9QR69 27-489), the binding entry in assay [1] is on record as “no binding”.

For “isolated PLCγ2 cSH2 domain wt, S-tagged (from UniProt P16885) (domain or fragment)”, the binding result in assay [2] is “binds”.

For the substance K15M wt, in the assay with S-tagged PLCγ1 wt, the binding entry is reported as “binds”.

Regarding K15P wt (from UniProt Q9QR69 27-489), the binding result in assay [1] is given as “binds”.
